# In US5180711A, “Combined treatment with GnRH antagonist and GnRH to control gonadotropin levels in mammals” (Applied Research Systems ARS Holding N.V., priority 1990, dated 1993):
# At least one peptide structure holds a part that was inferred or is arguable (an end, a ring closure or a residue). Where a SMILES comes first, the peptide text is derived from it. [ ]: non-standard residue; d: D form. The star is where a group is joined. dPhe(4-Cl) = N[C@H](Cc1ccc(Cl)cc1)C(=O)O; d2Nal = N[C@H](Cc1ccc2ccccc2c1)C(=O)O; Lys(iPr) = CC(C)NCCCC[C@H](N)C(=O)O; d3Pal = N[C@H](Cc1cccnc1)C(=O)O; Nicotinoyl = O=C(c1cccnc1)*
# How the values were obtained:
# [1] = tested on: tonic gonadotropin (FSH/LH) levels; settings: ovariectomized monkeys; duration dose dependent; cited from earlier work
# [2] = tested on: endogenous gonadotropin secretion (LH, FSH); assay: Inhibition of endogenous gonadotropin secretion by Antide and response to pulsatile GnRH replacement in ovariectomized monkeys (Example 1); type: in vivo, cynomolgus monkeys
# Protocol: Three long-term ovariectomized cynomolgus monkeys fitted with indwelling jugular vein canulae were utilized for this study. Daily blood samples were drawn under ketamine-induced anesthesia (10 mg/kg, I.M.), for 90 days. On study days 11-16 Antide (3 mg/kg, in propylene/glycol:water, 1:1) was administered via subcutaneous injection. GnRH replacement therapy (5 μg/pulse, 1 pulse/hour given over 1 min, via a Pulsamat infusion pump) was initiated on day 17 and continued for one week then withheld for one week, then reinitiated for one week in a 7 day on, 7 day off regimen for a total of four exposures.
# [3] = after Antide administration, 3 mg/kg sc
smiles,measurement,setting,value
"CC(=O)N[C@H](Cc1ccc2ccccc2c1)C(=O)N[C@H](Cc1ccc(Cl)cc1)C(=O)N[C@H](Cc1cccnc1)C(=O)N[C@@H](CO)C(=O)N[C@@H](CCCCNC(=O)c1cccnc1)C(=O)N[C@H](CCCCNC(=O)c1cccnc1)C(=O)N[C@@H](CC(C)C)C(=O)N[C@@H](CCCCNC(C)C)C(=O)N1CCC[C@H]1C(=O)N[C@H](C)C(N)=O [Antide, N--Ac--D--2--Nal--D--pClPhe--D--3---Pal--Ser--NicLys--D--NicLys--Leu--ILys--Pro--D--Ala--NH2] (Ac-[d2Nal][dPhe(4-Cl)][d3Pal]SK(Nicotinoyl)[dK](Nicotinoyl)L[Lys(iPr)]P[dA]-NH2)",inhibition of tonic gonadotropin (FSH/LH) levels,[1],profound long-term inhibition
same,recovery to pretreatment conditions,"[2]; Antide six day dose regimen, 3 mg/kg sc, study day",approximately 80 days
same,gonadotropin concentrations upon cessation of GnRH replacement therapy,"[2]; Antide-treated monkeys, GnRH withheld, 7 day on, 7 day off regimen",returned to a fully suppressed condition
same,time to FSH inhibition to less than 50 ng/ml,[2]; [3],≤ 48 h
same,time to LH inhibition to less than 50 ng/ml,[2]; [3],≤ 24 h
same,FSH concentration after Antide administration,"[2]; ovariectomized cynomolgus monkeys, Antide 3 mg/kg sc on study days 11-16, pretreatment FSH 100-150 ng/ml",less than 50 ng/ml
same,LH concentration after Antide administration,"[2]; ovariectomized cynomolgus monkeys, Antide 3 mg/kg sc on study days 11-16, pretreatment LH 200-300 ng/ml",less than 50 ng/ml
